Data on 1 molecule can be found in patent US20210122824A1.

No constants are given. Whether binding was seen depends on the method and setting. Some binding calls cover weakened binding; strength is not graded here.

The experiment addresses rhesus PD-L1-Fc fusion protein (Sino Biological cat #90251-C02H) (rhesus) (UniProt F6PJN1). Put plainly: SPR (Biacore T200), PD-L1-Fc immobilized, IgG in solution.

B1: TY21421 (antibody, V domains shown)
VH: EVQLVESGGGLVQPGGSLRLSCAASGYSISSGYYWGWIRQAPGKGLEWIGIIYPSGGGTNYAQKFQGRVTISRDNSKNTLYLQLNSLRAEDTAVYYCARGGGLGFDYWGQGTLVTVSS
VL: DIQLTQSPSSLSASVGDRVTITCRASQSIPSFLNWYQQKPGKAPKLLIYAASSLQSGVPSRFSGSGSGTDFTLTISSLQPEDFATYYCQHYISWPRQFTFGQGTKVEIKR
B1: the binding entry is recorded as “binds”.
